The subject of data set [1] is PBX (pre-B-cell leukemia transcription factor-1) (Ciona intestinalis). The data set can be described thus: SPR. To be noted: high, no fit, multimer, purified recombinant protein, protein details: His6, E. coli, label: biotin, single-stranded DNA.
For data set [2], the system named is HOX4 homeodomain fragment. The data set can be described thus: ELONA. To be noted: PBS-T, 4 C overnight; very little binding also on protein blot (FIG. 7C); purified recombinant protein; label: biotin; single-stranded DNA.

The exact form of at least one protein or probe is not confirmed. For part of these data: Negatives hold for the conditions tested.

On to “GGTATTGAGGGTCGCATCGGCTTCAGGTTGGTCTGGTTGGGTTTGGCTCCTGTGTACGGATGGCTCTAACTCTCCTCT [6H5]”, for which the binding result in data set [1] (unusual response 3-4 times expected, also affinity purified from lysate) was “binds”. Regarding “GGTATTGAGGGTCGCATCTCAAAAGGGGTGATTGCTTGCACAATGACAGGGTAGGACAGATGGCTCTAACTCTCCTCT [TTF1 Aptamer A]”, the binding result in data set [2] is reported as “no binding”.

On to “GGTATTGAGGGTCGCATCGCTATGGGTGGTCTGGTTGGGATTGGCCCCGGGAGCTGGCGATGGCTCTAACTCTCCTCT [6H7]”, for which the binding result in data set [1] (unusual response) was “binds”.
